Results: article PMC9682468
Positions count from the first letter of the chain named. No constants are given. Whether binding was seen depends on the method and setting. Binding seen in cells or lysates may run through a third protein. Some results given as binding are weak or reduced against the parent protein; the word gives no strength. Sequences can lack the tags named with a protein.

Amino acid sequences for entries named in this document (tags omitted).
UniProt Q64310: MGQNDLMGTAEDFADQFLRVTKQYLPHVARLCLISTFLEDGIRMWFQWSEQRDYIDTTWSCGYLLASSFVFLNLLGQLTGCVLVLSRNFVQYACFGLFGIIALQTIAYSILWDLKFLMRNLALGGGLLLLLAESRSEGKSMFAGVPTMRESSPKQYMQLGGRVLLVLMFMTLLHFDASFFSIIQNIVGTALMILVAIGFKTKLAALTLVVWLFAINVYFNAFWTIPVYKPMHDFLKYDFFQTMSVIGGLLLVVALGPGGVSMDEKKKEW

What was measured:
Assay in all cases: co-IP; HEK293T cells transfected with the tagged constructs, no cGAMP stimulation; FLAG-STING precipitated with anti-DYKDDDDK (FLAG) beads, 1 h or overnight at 4°C; 50 mM HEPES-NaOH pH 7.2, 150 mM NaCl, 5 mM EDTA, 1% Triton X-100 or 1% CHAPS; western blot
[1] = biological target: T1, mouse STING (SAVI) N153S, EGFP-tagged and FLAG-tagged copies, in HEK293T cells (mouse) (UniProt Q3TBT3)
T1 sequence: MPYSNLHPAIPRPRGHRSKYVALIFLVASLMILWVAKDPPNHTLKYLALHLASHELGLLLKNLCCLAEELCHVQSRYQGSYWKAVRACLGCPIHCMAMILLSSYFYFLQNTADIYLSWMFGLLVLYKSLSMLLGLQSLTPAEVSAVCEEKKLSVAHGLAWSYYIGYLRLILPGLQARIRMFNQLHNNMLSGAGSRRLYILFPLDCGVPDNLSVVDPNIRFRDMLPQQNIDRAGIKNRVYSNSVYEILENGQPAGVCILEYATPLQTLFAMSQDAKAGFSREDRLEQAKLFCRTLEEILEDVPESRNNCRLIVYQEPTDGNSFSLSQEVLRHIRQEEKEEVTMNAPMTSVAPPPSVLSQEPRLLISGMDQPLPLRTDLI

[2] = biological target: T2, mouse STING (SAVI) V146L, EGFP-tagged and FLAG-tagged copies, in HEK293T cells (mouse) (UniProt Q3TBT3)
T2 sequence: T1 sequence with V146L, S153N

[3] = biological target: T3, mouse STING (SAVI) V154M, EGFP-tagged and FLAG-tagged copies, in HEK293T cells (mouse) (UniProt Q3TBT3)
T3 sequence: T1 sequence with S153N, V154M

[4] = biological target: T4, mouse STING (WT), FLAG-tagged and EGFP-tagged copies, in HEK293T cells (mouse) (UniProt Q3TBT3)
T4 sequence: T1 sequence with S153N

binding [1]: binds
binding [2]: binds
binding [3]: binds
binding [4]: binds
Substance: mouse Surf4, N-terminal HA-tagged construct (from UniProt Q64310 1-269)
